{"source": "paper PMC2734569", "about": "“Functional mapping of the fission yeast DNA polymerase δ B-subunit Cdc1 by site-directed and random pentapeptide insertion mutagenesis” (BMC Molecular Biology, 2009)", "test_in_all_cases": "two-hybrid; LexA-Cdc1 bait (pBTM116 or pBTM116BN) with Gal4 activation domain-Cdc27 prey (pGAD2F-Cdc27) in S. cerevisiae CTY10-5d; ONPG liquid culture beta-galactosidase assay, mean of triplicates, as percent of wild-type Cdc1", "key": {"Cdc1-J16": {"target": "T1, Cdc1-J16 (Schizosaccharomyces pombe, UniProt P87324 1-462, Val-GlyGlyThrProVal-Asp)", "T1 construct": "Cdc1, S. pombe, with a pentapeptide inserted after residue 160; source: yeast two-hybrid fusion, in S. cerevisiae CTY10-5d", "T1 sequence (looked up)": "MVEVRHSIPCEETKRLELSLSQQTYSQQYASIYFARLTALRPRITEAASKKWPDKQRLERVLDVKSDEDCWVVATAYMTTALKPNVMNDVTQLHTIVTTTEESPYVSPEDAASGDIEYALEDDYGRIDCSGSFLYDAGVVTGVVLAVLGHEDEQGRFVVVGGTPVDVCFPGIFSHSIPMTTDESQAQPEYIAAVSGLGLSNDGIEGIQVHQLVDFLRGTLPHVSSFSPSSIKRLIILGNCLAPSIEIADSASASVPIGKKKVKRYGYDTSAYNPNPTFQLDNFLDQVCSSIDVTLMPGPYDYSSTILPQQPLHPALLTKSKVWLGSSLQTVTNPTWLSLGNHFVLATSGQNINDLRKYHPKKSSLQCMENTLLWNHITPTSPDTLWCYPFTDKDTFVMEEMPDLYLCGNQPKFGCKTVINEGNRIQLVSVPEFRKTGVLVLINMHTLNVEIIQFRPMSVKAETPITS"}, "Cdc1-E9": {"target": "T2, Cdc1-E9 (Schizosaccharomyces pombe, UniProt P87324 1-462, Tyr-GlyGlyTyrProTyr-Gly)", "T2 construct": "Cdc1, S. pombe, with a pentapeptide inserted after residue 124; source: yeast two-hybrid fusion, in S. cerevisiae CTY10-5d", "T2 sequence (looked up)": "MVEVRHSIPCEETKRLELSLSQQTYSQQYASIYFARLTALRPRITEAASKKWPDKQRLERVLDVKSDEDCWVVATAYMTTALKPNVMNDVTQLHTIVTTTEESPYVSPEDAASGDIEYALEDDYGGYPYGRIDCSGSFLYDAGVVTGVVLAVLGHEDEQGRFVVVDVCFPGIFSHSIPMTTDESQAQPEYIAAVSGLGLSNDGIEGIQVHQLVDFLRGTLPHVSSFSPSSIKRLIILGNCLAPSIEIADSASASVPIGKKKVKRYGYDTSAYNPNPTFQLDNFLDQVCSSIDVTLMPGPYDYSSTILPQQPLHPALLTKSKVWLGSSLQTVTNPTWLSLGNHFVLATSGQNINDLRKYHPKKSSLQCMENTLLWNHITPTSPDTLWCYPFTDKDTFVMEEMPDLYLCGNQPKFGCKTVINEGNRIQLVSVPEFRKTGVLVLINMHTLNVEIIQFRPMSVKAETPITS"}, "Cdc1-E2": {"target": "T3, Cdc1-E2 (Schizosaccharomyces pombe, UniProt P87324 1-26)", "T3 construct": "Cdc1, S. pombe, truncated after amino acid 26 by a 16 nt insertion; residues coded by the 16 nt insertion before the stop codon (printed as GlyValProLysTer); source: yeast two-hybrid fusion, in S. cerevisiae CTY10-5d", "T3 chain": "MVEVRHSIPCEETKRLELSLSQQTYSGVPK"}, "Cdc1-E1": {"target": "T4, Cdc1-E1 (Schizosaccharomyces pombe, UniProt P87324 1-462, Ser-GlyValProGlnSer-Asp)", "T4 construct": "Cdc1, S. pombe, with a pentapeptide inserted after residue 66; source: yeast two-hybrid fusion, in S. cerevisiae CTY10-5d", "T4 sequence (looked up)": "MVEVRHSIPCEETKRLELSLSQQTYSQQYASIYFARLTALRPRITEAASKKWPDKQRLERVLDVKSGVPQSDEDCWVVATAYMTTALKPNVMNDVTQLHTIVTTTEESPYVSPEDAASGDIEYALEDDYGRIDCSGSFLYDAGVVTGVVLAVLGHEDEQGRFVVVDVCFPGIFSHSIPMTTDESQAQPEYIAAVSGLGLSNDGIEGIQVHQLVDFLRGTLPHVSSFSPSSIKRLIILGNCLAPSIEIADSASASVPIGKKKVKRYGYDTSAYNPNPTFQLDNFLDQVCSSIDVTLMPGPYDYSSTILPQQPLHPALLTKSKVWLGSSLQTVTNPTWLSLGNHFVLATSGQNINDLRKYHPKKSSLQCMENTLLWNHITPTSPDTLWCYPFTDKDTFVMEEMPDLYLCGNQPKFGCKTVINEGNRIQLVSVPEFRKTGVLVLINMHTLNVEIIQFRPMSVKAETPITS"}, "Cdc1-J4": {"target": "T5, Cdc1-J4 (Schizosaccharomyces pombe, UniProt P87324 1-462, Ile-GlyValProArgIle-Asp)", "T5 construct": "Cdc1, S. pombe, with a pentapeptide inserted after residue 127; also called J5; J13; source: yeast two-hybrid fusion, in S. cerevisiae CTY10-5d", "T5 sequence (looked up)": "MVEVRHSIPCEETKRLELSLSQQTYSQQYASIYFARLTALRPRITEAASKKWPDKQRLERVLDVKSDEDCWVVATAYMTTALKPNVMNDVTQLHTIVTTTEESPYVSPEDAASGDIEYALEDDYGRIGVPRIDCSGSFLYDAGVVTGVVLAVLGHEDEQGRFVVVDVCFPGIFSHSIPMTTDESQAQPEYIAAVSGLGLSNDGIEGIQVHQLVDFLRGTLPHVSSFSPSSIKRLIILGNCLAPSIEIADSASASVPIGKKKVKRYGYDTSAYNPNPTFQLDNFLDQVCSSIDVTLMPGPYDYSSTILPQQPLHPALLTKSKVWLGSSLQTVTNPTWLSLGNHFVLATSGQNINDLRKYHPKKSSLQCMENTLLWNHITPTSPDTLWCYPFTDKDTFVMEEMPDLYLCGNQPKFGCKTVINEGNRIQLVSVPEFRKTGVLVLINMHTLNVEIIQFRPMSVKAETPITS"}}, "note": "These are yes or no findings as the source states them, for the method shown. Tags and fused reporters may be left off the sequences shown.", "data": [{"binder": "Cdc27 (fission yeast DNA polymerase delta C-subunit) (natural protein, Schizosaccharomyces pombe, UniProt P30261 1-372, looked up, DNA polymerase delta C-subunit Cdc27, S. pombe; prey plasmid pGAD2F-Cdc27; also called pGAD2F-Cdc27; source: yeast two-hybrid fusion, in S. cerevisiae CTY10-5d) MEEWRNFLDIKVINESSLVTVDNLSLQLDISSEKAQEYLNMFYQGNDFLYPIYLIHGQPIDDEINLEIDEESQPISNFPVLQYILCDKSSLQEKQSRLKSGYKTVIFALSSAPLSDFDELLPAVYEIREKDVLYKKEDADKYGFIFNENSVPRVLKKAPSTHSPQLSVPSKTSTIDKTDTRSTEKTKGKDIFSNARNQKGNSSRKNKKAPLENHKEKEPLLPKEEKLSEQAKRERDDLKNIMQLEDESVSTTSVHDSEDDNLDSNNFQLEIGTEAKSAAPDEPQEIIKSVSGGKRRGKRKVKKYATTKDEEGFLVTKEEEVWESFSEDENISTGTSNVVRNKPTTVNIATKKKNTAQSKPQQKSIMSFFGKK", "values": [{"measurement": "binding", "setting": "Cdc1-J16", "result": "no binding (tested: <1% of wild type (Table 1))"}, {"measurement": "binding", "setting": "Cdc1-E9", "result": "no binding (tested: <1% of wild type (Table 1))"}, {"measurement": "binding", "setting": "Cdc1-E2", "result": "no binding (tested: <1% of wild type (Table 1))"}, {"measurement": "binding", "setting": "Cdc1-E1", "result": "no binding (tested: 1% of wild type (Table 1))"}, {"measurement": "binding", "setting": "Cdc1-J4", "result": "no binding (tested: <1% of wild type (Table 1))"}]}]}
